From doi:10.1101/2023.12.20.572708 come the findings set out here.

Amino acid sequences for entries named in this document (tags omitted). A change or cut given only in a name is not applied to a line headed by its entry. Residues count along the entry.
UniProt P04146, 1-185, stated change not applied: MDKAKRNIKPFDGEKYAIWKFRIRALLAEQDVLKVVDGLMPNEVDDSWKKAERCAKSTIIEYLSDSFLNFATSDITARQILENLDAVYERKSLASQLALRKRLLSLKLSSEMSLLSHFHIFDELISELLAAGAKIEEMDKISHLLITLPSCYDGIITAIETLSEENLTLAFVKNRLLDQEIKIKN

The assay concerns the target Copia^GagΔNC (Drosophila) (UniProt P04146). Briefly: SEC. For orientation: Size exclusion chromatography separates by hydrodynamic size, large species first.

No constants are given. Whether binding was seen depends on the method and setting.

As to “Copia^GagΔNC (from UniProt P04146 1-185) (domain or fragment)”, the binding result is “no binding”.
